What was measured:
peptide synthesis = settings: TFA salt
[1] = general procedure: peptide synthesis; Fmoc-Leu-HMPB BHA resin; settings: whole synthesis

Row | Substance | step yield (peptide synthesis; coupling step) [%] | final HPLC purity (peptide synthesis; coupling step) | other results
1 | N-[(N-{1-[N-(1-{N-[(1R)-1-(N-{(1S)-3-Methyl-1-[N-(2-methylpropyl)carbamoyl]butyl}carbamoyl)-3-methylbutyl]carbamoyl}(1S)-4-(amidinoamino)butyl)carbamoyl](1S)-3-phenylpropyl}carbamoyl)methyl](2S)-2-[((2S)-1-acetylpyrrolidin-2-yl)carbonylamino]-4-methylpentanamide | 58.9 |  | 
2 | Ac-PL-NLys(Boc)-L-OH |  |  | isolated yield [1]: 79%
3 | N—[(N-{1-[N-(1-{N-[4-({N-[(1R)-1-(N-Aminocarbamoyl)-3-methylbutyl]carbamoyloxy}methyl)phenyl]carbamoyl}(1S)-4-[(imino{[(2,2,5,7,8-pentamethylchroman-6-yl)sulfonyl]amino}methyl)amino]butyl)carbamoyl](1S)-3-phenylpropyl}carbamoyl)methyl] | 23 | HPLC purity 100% | 
4 | N—[(N-{1-[N-(1-{N-[4-({N-[(1R)-1-(N-Aminocarbamoyl)-3-methylbutyl]carbamoyloxy}methyl)phenyl]carbamoyl}(1S)-3-methylbutyl)carbamoyl](1S)-3-phenylpropyl}carbamoyl)methyl](2S)-2-[((2S)-1-acetylpyrrolidin-2-yl)carbonylamino] | 38 | HPLC purity 100% | 
5 | N-[(2R)-2-({[4-((2S)-2-{(2S)-2-[2-((2S)-2-[((2S)-1-Acetylpyrrolidin-2-yl)carbonylamino]-N-{4-[(tert-butoxy)carbonylamino]butyl}-4-methylpentanoylamino)-acetylamino]-4-methylpentanoylamino}-4-methylpentanoylamino)phenyl]methoxy}-carbonylamino)-4-methylpentanoylamino]-6-aminohexanamide Trifluoroacetic Acid Salt |  |  | final HPLC purity (peptide synthesis; late stage modification step): HPLC purity 100%; step yield (peptide synthesis; late stage modification step): 90%

Reference: US20070014721A1 (priority 2005, published 2007)
